From PubChem BioAssay AID493014 (National Center for Advancing Translational Sciences (NCATS), 2011) come the findings set out here.

The assay is described as follows: qHTS Assay to Find Inhibitors of Chronic Active B-Cell Receptor Signaling. Conditions: ABC-DLBCL IkBa-CBG/CBR reporter, luminescence ratio (green luciferase fused to IkBa over red control in TMD8 lymphoma cells), 4 h. The essentials: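 Doxycycline induced both beetle luciferases in TMD8 lymphoma cells; IKK-driven degradation limits the IkappaBalpha-fused green signal, while red luminescence normalises for cell number and nonspecific effects. Compounds tested up to 46 uM, 4 hrs.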
(In general: qHTS replaces the single test concentration by a dilution series.)

Where [1] appears, read: measured here: CBR red luminescence, cell number.

This is one part of the list. The main result of the screen is listed elsewhere. These columns were measured beside it and carry no call. Compounds called inactive in the main read-out are mostly missing here. Words in brackets tell the shape of the fitted curve; partial curves, single points and poor fits give uncertain potencies.

Turning to `C[C@H](CO)N1C[C@H](C)[C@@H](CN(C)Cc2ccc(-c3ccccc3)cc2)Oc2c(NC(=O)Cc3ccccc3)cccc2C1=O`, under setting [1], the AC50 (usually the concentration giving half of the maximal activity seen) is 2.31 µM [falling, full curve].

Consider `Cc1ccc(NS(=O)(=O)c2cc([N+](=O)[O-])ccc2NNC(=S)Nc2cc(C)ccc2C)c(C)c1`, for which the AC50 under setting [1] is 20.6 µM [falling, single point] and the AC50 (measured here: IkBa-CBG green luminescence) was 20.6 µM [rising, single point].

Regarding `CCOC(=O)C1(CCOc2ccccc2)CCN(Cc2cccc3c2OCO3)CC1`, the AC50 under setting [1] is 35.5 µM [falling, single point].

As for `O=C1CC(c2ccco2)Cc2nc(Nc3nc(-c4ccccc4)c4ccccc4n3)ncc21` (centres undefined), the AC50 under setting [1] was 10 µM [falling, partial curve, poor fit].

`CC(C)c1cc(C(=O)N/N=C/C=C/c2ccccc2)n[nH]1`: the concentration at half-maximal activity (AC50) under setting [1] is 25.9 µM [rising, single point].

With `CCOc1ccc(-c2n[nH]c(=S)c3ccccc23)cc1`, the AC50 under setting [1] is 35.5 µM [rising, single point].

As for `Cn1ncc2c1ncn1nc(CCc3ccccc3)nc21`, the AC50 under setting [1] is 0.355 µM [rising, partial curve, poor fit].

Take `CCC1CCC2(CC1)SCC(=O)N2c1ccccc1` (centres undefined): under setting [1], the AC50 was 6.31 µM [rising, single point].

Take `NC(=O)CN1C(=O)C(O)(CC(=O)/C=C\c2ccc3c(c2)OCO3)c2ccccc21` (centres undefined): the AC50 under setting [1] is 12.6 µM [falling, single point].

For `CCCn1nc2cc(C(=O)NCC34CC5CC(CC(C5)C3)C4)ccc2c1OCC`, the AC50 under setting [1] was 12.6 µM [falling, single point].

Consider `CC(C)n1cnc2cc(NC(=O)c3ccco3)ccc21`, for which the AC50 under setting [1] is 11.2 µM [falling, single point].

With `Cn1nc(-c2ccccc2)c(C(=O)Nc2ccc(Cl)cc2)c1Cl`, the AC50 under setting [1] is 1.12 µM [rising, full curve, poor fit].

For `O=C(OCc1c(-c2ccccc2)ncc2ccccc12)c1ccc(F)cc1`, the AC50 under setting [1] is 6.51 µM [falling, single point].

Regarding `O=C(O)c1ccc(NC(=O)c2ccc3c(c2)C(=O)N(c2ccccc2)C3=O)cc1`, under setting [1], the AC50 is 35.5 µM [falling, single point].

On to `O=C(c1ccc(Br)o1)N1CCN(C/C=C/c2ccccc2)CC1`, for which the AC50 under setting [1] is 3.55 µM [rising, full curve, poor fit].

Take `Cc1nn(C)cc1/C=C/C(=O)c1cccs1`: the AC50 under setting [1] is 16.4 µM [falling, partial curve].

As to `COc1ccc(C(=O)CSc2ccccc2C(=O)O)cc1`, the concentration at half-maximal activity (AC50) under setting [1] was 3.98 µM [rising, partial curve, poor fit].

Turning to `CCCCCn1nc(C(=O)N2CCc3ccccc32)c2ccccc2c1=O`, under setting [1], the AC50 is 29.1 µM [falling, single point].
